In paper PMC2989437:
No constants are given. Whether binding was seen depends on the method and setting. Binding seen in cells or lysates may run through a third protein. Some results given as binding are weak or reduced against the parent protein; the word gives no strength.

The chains behind the UniProt entries cited, without tags or fusion partners.
UniProt O14157: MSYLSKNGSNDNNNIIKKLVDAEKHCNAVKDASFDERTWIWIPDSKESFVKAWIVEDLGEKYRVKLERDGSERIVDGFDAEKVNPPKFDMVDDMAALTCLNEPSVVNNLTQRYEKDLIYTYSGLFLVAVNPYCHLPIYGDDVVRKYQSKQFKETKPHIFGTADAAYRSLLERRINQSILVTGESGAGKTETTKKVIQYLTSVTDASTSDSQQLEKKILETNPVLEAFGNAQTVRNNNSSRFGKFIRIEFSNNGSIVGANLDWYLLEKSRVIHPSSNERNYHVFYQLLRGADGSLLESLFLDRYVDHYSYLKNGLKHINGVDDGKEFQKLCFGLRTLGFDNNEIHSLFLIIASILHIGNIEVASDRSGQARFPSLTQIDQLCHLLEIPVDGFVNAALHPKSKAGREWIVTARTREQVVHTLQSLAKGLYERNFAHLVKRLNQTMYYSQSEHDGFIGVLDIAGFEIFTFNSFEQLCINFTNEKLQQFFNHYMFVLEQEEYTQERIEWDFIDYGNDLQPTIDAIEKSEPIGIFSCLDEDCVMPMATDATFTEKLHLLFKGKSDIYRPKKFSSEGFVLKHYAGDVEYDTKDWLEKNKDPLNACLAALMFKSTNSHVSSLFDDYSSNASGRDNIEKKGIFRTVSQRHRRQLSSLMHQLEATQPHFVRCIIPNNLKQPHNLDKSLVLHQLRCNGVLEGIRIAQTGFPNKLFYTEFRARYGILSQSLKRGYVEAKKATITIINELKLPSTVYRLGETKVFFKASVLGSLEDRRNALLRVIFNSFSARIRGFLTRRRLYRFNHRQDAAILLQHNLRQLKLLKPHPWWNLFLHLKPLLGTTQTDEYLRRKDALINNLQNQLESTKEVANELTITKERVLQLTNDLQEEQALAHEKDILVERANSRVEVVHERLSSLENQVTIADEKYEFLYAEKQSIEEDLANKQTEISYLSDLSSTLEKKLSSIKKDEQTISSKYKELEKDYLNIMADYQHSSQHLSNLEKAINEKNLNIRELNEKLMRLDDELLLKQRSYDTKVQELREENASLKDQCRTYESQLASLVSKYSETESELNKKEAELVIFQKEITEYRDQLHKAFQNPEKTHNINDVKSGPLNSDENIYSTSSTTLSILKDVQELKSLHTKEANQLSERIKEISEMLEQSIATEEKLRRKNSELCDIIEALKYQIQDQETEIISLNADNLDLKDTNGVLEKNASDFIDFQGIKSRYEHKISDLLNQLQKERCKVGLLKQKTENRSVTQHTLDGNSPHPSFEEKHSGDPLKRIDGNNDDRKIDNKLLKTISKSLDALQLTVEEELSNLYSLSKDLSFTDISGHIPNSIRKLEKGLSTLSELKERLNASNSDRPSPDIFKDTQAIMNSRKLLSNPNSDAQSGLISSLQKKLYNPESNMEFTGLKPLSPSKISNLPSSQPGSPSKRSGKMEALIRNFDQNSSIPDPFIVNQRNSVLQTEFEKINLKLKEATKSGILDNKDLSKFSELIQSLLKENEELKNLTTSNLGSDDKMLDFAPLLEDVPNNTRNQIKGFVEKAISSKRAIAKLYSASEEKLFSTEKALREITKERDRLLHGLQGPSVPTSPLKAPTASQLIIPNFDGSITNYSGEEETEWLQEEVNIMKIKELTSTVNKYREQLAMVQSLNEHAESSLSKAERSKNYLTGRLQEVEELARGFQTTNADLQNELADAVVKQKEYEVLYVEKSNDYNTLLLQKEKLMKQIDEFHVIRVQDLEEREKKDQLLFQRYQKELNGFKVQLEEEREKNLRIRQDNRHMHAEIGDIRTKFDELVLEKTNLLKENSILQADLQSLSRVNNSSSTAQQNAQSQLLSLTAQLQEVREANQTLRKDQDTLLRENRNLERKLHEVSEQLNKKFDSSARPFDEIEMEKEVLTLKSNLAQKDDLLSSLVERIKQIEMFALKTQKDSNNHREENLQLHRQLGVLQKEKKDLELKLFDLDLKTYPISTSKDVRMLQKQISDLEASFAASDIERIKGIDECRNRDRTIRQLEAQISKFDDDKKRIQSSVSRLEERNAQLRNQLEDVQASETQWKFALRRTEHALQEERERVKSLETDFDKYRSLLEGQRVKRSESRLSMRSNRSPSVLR

Biological target: Myp2-YFP (Schizosaccharomyces pombe) (UniProt O14157)
Test: co-IP; Mto1 co-immunoprecipitated with Myp2-YFP in fission yeast cell extracts

B1: Mto1 (protein, UniProt O94488 1-1115)
chain: MEENSSELDSNNFNVLVDNLAGLSLTDEEVRRILSPRKEGSRQLPSSTSKDEDSEEASHKYDFEIDRDSLKSDSGSPRLHQNATAPTSSTPLQSPDESVNKLNSEDEEGNSSVAPFFLDTTNFDRLNDNITTDDEQLSPVLTANQGFQSQEQYEEDSYNNYDYTSDPSSPNYISSSLDQLPHLDDEDDLQLTPIKEERNYLHSQDAPTTNALSKKISDILIPASAMKDLKDRKNALAKEFEESQPGSSLTLKEQANVIDNLRKEVFGLKLKCYFLYDQLNKFHDQEVQDIMKQNIDLKTLTMELQRAVAGYEKKISGLESRIKPDQSFNLSTPSPAPSNLITLQSRYSQALSELETTKRAFAALRKEKSKKTNYSVGAYNEDRNVLSNMLDNERREKEALLQELESLRVQLSKKVPMPAKNTDERVIETLQRSNELLRMDISMQNEALLLRKQENDRLVKQVEELTVALNSGKMNAIVEAESSKNELWDSMMVSRMKTQEQSIELTRLYKQLQDIEEDYENKLMRMEQQWREDVDQLQEYVEEITQELQDTKEVLSKSSKESDDYEEVVGKLRTEAEREIEKFEKTIRENEESISLFKEEVEKLTDEITQLSERYNDKCHEFDELQKRLQTLEEENNKAKEDSTSKTSNLLEQLKMTEAEVDSLRKENEENKQVIALKESELVKSNDNKLLLNEQIESLNDQLSQLKTEMESVTTSKESLADYLSNLKERHNDELDSLNKKLREFEGILSSNSSLKSEIEERNNQYVTLRENFDSLQNAIMETFDKQVTHCSVNHLVQQIRKLKDENKKDQSGTDKLMKKIYHCEQSLKEKTNSLETLVSEKKELKNLLDAERRSKKAIQLELENLSSQAFRRNLSGSSSPSERSQSRELKLLQASEKRLKEQVEERNSLIKNIVTRFTQLNTGSKPVNTNVEALTTISSMNQAVNMNFRELDKSIQEFKRKCQSMEREFKTELRKLDGVLEARSKRLSQLEERVKLLGAGSTSSIPNSPRASKRVSLDSEDKKLVPASPDKSAVQRGITALKRDAEGMSHIWQLRLREMEFQLKAEQEGRKRDKLGARERLQDLIRQNRSLSRQIKTDKESNSRSPSISSQEHK
Which binding does the source give for B1 here?
Its binding is “binds”.
